# Test results as given in BigSolDB 2.1.
smiles,measurement,setting,value
CC1=C(C(=O)O)N2C(=O)[C@@H](NC(=O)[C@H](N)c3ccccc3)[C@H]2SC1.O,solubility (mole fraction),"in acetonitrile, 278.1 K",9.5e-06
same,solubility (mole fraction),"in acetonitrile, 280.1 K",1.52e-05
same,solubility (mole fraction),"in acetonitrile, 283.1 K",2.37e-05
same,solubility (mole fraction),"in methanol, 278.1 K",0.000235
same,solubility (mole fraction),"in methanol, 280.1 K",0.000281
same,solubility (mole fraction),"in methanol, 283.1 K",0.000354
same,solubility (mole fraction),"in methanol, 293.1 K",0.000606
same,solubility (mole fraction),"in methanol, 303.1 K",0.000951
same,solubility (mole fraction),"in water, 283.1 K",0.000533
same,solubility (mole fraction),"in water, 293.1 K",0.000721
same,solubility (mole fraction),"in water, 303.1 K",0.000826
same,solubility (mole fraction),"in water, 313.1 K",0.00096
same,solubility (mole fraction),"in water, 323.1 K",0.00125
